Assay results as given in PubChem BioAssay AID2685 (National Center for Advancing Translational Sciences (NCATS), 2010).
Some of the results follow. Shown are side measurements of this screen, not its main read-out; they come without a call. Compounds called inactive in the main read-out are mostly missing here. Words in brackets tell the shape of the fitted curve; partial curves, single points and poor fits give uncertain potencies.

Assay: qHTS Assay for Lipid Storage Modulators in Drosophila S3 Cells;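 for cell number change: cells counted by Cell Tracker Red CMTPX staining in the red channel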
Conditions: BODIPY lipid droplet fluorescence, 18-24 h; for cell number change: measured here: cell count max response, cells fed with added oleic acid
How it was run: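 Drosophila S3 cells loaded with oleic acid (400 uM, as added) and compounds at several concentrations; lipid droplets imaged by 488-nm laser-scanning cytometry, 500–530 nm intensity and object ratio to cell channel. Percent activity normalized to 20 uM Triacsin C.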

[1] = measured here: lipid fluorescence (Fed channel) AC50, cells fed with added oleic acid
[2] = measured here: cell number channel AC50, cells fed with added oleic acid

Row | Compound | cell number change | AC50 [1] | AC50 [2]
1 | Cc1nn(-c2ccccc2)c(Cl)c1C(=O)OC(C)C(=O)Nc1ccc2c(c1)OCO2 (stereo unspecified) | 13.7% | 0.259 µM [rising, single point] | –
2 | O=C(C/C=N\OCc1ccc([N+](=O)[O-])cc1)Nc1ccccc1 | -13.5% | 0.116 µM [falling, full curve, poor fit] | 0.092 µM [falling, full curve, poor fit]
3 | O=C(NCc1ccc(F)cc1)c1cccc2c1C(=O)c1ccc(Cl)cc1S2(=O)=O | 14.3% | 0.231 µM [rising, single point] | –
4 | Cc1ccccc1CN(C)CC(=O)NC(C)CCc1ccccc1 (stereo unspecified) | -9.05% | – | –
5 | CCN(CC)S(=O)(=O)c1cccc(-c2nn(-c3ccccc3)cc2/C=C(\C#N)C(=O)NCc2ccco2)c1 | 2.56% | 0.116 µM [rising, full curve, poor fit] | –
6 | N#Cc1nc(Cc2cccc3ccccc23)oc1NCCCn1ccnc1 | – | 0.184 µM [rising, full curve, poor fit] | 0.103 µM [rising, full curve, poor fit]
7 | O=C(/C=C/c1ccco1)Nc1ccc(Cl)c(S(=O)(=O)N2CCOCC2)c1 | -25.3% | 0.366 µM [falling, full curve] | –
8 | CC(C)(C)OC(=O)N1CCC[C@H]1c1nnc(SC/C=C/c2ccccc2)o1 | -18.9% | 29.1 µM [falling, single point] | –
9 | COCCCNC(=O)CS(=O)(=O)Cc1nc(-c2ccccc2C)oc1C | – | 6.51 µM [falling, single point] | –
10 | N#Cc1cccc(NC(=O)c2cncn2-c2ccccc2)c1 | – | – | 6.51 µM [rising, single point]
11 | Cc1cccc(C(=O)N[C@H](C(=O)OCC(=O)NC(=O)c2cccn2C)C(C)C)c1 | 12.1% | 10.3 µM [rising, partial curve, poor fit] | –
12 | Cn1c(=O)[nH]c(=O)c2c1nc(N1CCCC1)n2CCCSc1nc2ccccc2o1 | -6.25% | – | –
13 | CN(C(=O)CSc1nc(C2CC2)nc2ccccc12)c1nc(-c2ccccc2)cs1 | 15.5% | 29.1 µM [rising, partial curve, poor fit] | –
14 | O=C(c1ccco1)N1CCN(C(c2ccc(F)cc2)c2nnnn2Cc2cccs2)CC1 (stereo unspecified) | 12.6% | 0.731 µM [rising, full curve, poor fit] | –
15 | CCOc1cc(/C=N\Nc2nc(-c3ccc(C)cc3)c(NC(C)=O)s2)ccc1O | 28.3% | 7.31 µM [rising, partial curve] | 0.00461 µM [rising, full curve, poor fit]
16 | Cc1ccc(C(C#N)N2CCOCC2)cc1 (stereo unspecified) | 36.8% | 29.1 µM [rising, single point] | 25.9 µM [rising, single point]
17 | CCOC(=O)c1c(CC(C)C)csc1/N=C/C1C(=O)CC(C)(C)CC1=O | 18.5% | 10.3 µM [rising, partial curve] | –
18 | N#CC(C#N)=C1C=CC=CN1/C(=C\c1ccco1)C(=O)c1ccc(-c2ccccc2)cc1 | -60.8% | 4.11 µM [falling, partial curve] | 7.31 µM [falling, partial curve]

Some of the entries so far, in markdown.

| Row | Compound | cell number change | AC50 [1] | AC50 [2] |
| --- | --- | --- | --- | --- |
| 8 | CC(C)(C)OC(=O)N1CCC[C@H]1c1nnc(SC/C=C/c2ccccc2)o1 | -18.9% | 29.1 µM [falling, single point] | – |
| 16 | Cc1ccc(C(C#N)N2CCOCC2)cc1 (stereo unspecified) | 36.8% | 29.1 µM [rising, single point] | 25.9 µM [rising, single point] |

The list continues:

Row | Compound | cell number change | AC50 [1] | AC50 [2]
19 | O=C(O)c1ccc(S(=O)(=O)/N=C2\C=C(Nc3ccccc3F)C(=O)c3ccccc32)cc1 | – | 8.2 µM [falling, partial curve] | –
20 | CCOC(=O)c1sc(NC(=O)c2ccccc2F)c(C(N)=O)c1C | 114% | 1.64 µM [rising, full curve] | 1.84 µM [rising, full curve]
21 | O=c1oc2ccccc2c(Nc2cccc3cccnc23)c1[N+](=O)[O-] | -27% | – | –
22 | COc1cc(OC)cc(C(=O)NC2CCN(C(=O)N3c4ccccc4Sc4ccccc43)CC2)c1 | -26% | 29.1 µM [falling, single point] | –
23 | CCN(CC)c1ccc(N=Cc2c(C)[nH]c3ccccc23)cc1 | -45.4% | 18.4 µM [falling, single point] | 29.1 µM [falling, single point]
24 | COc1ccccc1COCC(O)CN(Cc1ccco1)Cc1ccccc1O (stereo unspecified) | 3.4% | 18.4 µM [rising, single point] | –
25 | CC(C)Oc1ccc(S(=O)(=O)N2CCCCC2)cc1NC(=O)C1CCC1 | 36.2% | 2.59 µM [rising, full curve] | 1.84 µM [rising, partial curve]
26 | O=C(c1ccc2c(c1)OCO2)N1CCN(S(=O)(=O)c2ccc(Br)cc2Cl)CC1 | -7.63% | 3.66 µM [rising, full curve] | –
27 | CCN(CC)S(=O)(=O)c1ccc(Cl)c(C(=O)OC)c1 | 20.7% | – | –
28 | Cc1cc(C)n(C(N)=NC(=O)c2ccc([N+](=O)[O-])cc2)n1 | -43.3% | 29.1 µM [falling, single point] | 18.4 µM [falling, single point]
29 | Cc1cccc(NC(=S)NC2CC3C=CC2C3)c1 (stereo unspecified) | 40.9% | 23.1 µM [rising, single point] | 9.2 µM [rising, single point]
30 | CCOC(=O)c1sc(NC(=O)c2sccc2C)cc1C | – | 1.46 µM [rising, partial curve] | 2.06 µM [rising, partial curve]
31 | CSc1ccccc1C(=O)N1CCC(n2nccc2NC(=O)C(C)(C)C)CC1 | 11.6% | – | –
32 | CCOC(=O)CSC1=C(C#N)C(c2ccccc2OCC)C(C#N)C(=O)N1 (stereo unspecified) | – | 0.411 µM [falling, full curve, poor fit] | 1.3 µM [rising, single point]
33 | COc1ccc(C(=O)[C@H]2[C@H]3C(=O)N(c4ccc(OC(C)=O)cc4)C(=O)[C@H]3C3C=CC=NN32)cc1 (stereo partly specified) | 27.9% | 4.11 µM [rising, single point] | –
34 | CCN1CCN(c2cc3c(cc2F)c(=O)c(C(=O)O)cn3C2CC2)CC1 | -53.5% | 0.164 µM [falling, full curve] | 0.164 µM [falling, full curve]
35 | FC(F)Oc1ccc(NC(=S)NCc2nc3ccccc3[nH]2)cc1 | 3.75% | – | –
